Article PMC8990461
Results are given in words; binding and its absence hold for the method and conditions named. Binding seen in cells or lysates may run through a third protein. Some results given as binding are weak or reduced against the parent protein; the word gives no strength.

By UniProt entry, the sequences of proteins in these tests, tags left out.
UniProt P35579: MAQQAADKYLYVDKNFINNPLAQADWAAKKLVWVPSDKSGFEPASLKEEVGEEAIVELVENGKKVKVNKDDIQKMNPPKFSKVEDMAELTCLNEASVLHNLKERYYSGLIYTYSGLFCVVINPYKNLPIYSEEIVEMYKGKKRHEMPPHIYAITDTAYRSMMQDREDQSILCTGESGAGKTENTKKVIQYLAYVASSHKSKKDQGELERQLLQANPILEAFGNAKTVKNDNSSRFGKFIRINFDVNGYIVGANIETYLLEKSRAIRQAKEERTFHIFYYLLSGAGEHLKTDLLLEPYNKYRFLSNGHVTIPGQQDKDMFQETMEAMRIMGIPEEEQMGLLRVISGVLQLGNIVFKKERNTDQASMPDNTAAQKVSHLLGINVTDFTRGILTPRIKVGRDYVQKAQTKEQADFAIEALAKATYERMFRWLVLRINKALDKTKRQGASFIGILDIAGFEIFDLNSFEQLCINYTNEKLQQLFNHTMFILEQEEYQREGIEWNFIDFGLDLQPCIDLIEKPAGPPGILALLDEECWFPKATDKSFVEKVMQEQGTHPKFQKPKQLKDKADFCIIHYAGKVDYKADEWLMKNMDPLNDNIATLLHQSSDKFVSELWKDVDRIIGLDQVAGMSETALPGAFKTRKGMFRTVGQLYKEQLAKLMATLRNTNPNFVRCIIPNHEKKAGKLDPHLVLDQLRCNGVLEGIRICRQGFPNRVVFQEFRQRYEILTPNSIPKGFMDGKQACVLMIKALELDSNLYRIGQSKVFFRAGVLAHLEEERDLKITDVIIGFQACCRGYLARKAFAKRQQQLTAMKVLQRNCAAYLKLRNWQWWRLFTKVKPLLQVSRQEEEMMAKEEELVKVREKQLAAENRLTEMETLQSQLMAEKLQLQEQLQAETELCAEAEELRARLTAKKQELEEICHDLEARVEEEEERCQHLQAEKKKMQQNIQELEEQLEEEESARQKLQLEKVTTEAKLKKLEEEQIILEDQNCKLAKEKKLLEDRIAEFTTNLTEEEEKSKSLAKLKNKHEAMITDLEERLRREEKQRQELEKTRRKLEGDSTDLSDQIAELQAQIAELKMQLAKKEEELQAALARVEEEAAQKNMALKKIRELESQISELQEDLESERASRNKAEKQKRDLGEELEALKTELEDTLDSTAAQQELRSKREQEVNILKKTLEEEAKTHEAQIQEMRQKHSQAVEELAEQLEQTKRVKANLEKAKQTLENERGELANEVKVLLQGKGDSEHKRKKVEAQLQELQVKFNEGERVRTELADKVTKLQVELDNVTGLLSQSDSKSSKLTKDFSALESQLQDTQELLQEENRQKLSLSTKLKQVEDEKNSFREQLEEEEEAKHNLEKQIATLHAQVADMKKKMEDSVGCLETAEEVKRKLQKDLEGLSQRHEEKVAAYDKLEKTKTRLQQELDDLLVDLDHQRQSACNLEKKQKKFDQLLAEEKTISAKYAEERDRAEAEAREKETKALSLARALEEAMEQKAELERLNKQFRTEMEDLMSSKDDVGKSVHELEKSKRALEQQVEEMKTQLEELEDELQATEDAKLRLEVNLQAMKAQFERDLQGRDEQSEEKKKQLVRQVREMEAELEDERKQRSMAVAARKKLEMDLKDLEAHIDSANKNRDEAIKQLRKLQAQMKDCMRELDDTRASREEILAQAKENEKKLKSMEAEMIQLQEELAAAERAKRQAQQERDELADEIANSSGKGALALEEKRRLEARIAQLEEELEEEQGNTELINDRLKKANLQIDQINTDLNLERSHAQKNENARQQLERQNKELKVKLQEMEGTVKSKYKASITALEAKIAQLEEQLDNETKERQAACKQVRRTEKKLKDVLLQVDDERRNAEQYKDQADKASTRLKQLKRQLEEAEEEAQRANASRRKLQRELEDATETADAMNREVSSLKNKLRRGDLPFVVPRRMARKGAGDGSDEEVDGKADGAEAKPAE
UniProt Q93009: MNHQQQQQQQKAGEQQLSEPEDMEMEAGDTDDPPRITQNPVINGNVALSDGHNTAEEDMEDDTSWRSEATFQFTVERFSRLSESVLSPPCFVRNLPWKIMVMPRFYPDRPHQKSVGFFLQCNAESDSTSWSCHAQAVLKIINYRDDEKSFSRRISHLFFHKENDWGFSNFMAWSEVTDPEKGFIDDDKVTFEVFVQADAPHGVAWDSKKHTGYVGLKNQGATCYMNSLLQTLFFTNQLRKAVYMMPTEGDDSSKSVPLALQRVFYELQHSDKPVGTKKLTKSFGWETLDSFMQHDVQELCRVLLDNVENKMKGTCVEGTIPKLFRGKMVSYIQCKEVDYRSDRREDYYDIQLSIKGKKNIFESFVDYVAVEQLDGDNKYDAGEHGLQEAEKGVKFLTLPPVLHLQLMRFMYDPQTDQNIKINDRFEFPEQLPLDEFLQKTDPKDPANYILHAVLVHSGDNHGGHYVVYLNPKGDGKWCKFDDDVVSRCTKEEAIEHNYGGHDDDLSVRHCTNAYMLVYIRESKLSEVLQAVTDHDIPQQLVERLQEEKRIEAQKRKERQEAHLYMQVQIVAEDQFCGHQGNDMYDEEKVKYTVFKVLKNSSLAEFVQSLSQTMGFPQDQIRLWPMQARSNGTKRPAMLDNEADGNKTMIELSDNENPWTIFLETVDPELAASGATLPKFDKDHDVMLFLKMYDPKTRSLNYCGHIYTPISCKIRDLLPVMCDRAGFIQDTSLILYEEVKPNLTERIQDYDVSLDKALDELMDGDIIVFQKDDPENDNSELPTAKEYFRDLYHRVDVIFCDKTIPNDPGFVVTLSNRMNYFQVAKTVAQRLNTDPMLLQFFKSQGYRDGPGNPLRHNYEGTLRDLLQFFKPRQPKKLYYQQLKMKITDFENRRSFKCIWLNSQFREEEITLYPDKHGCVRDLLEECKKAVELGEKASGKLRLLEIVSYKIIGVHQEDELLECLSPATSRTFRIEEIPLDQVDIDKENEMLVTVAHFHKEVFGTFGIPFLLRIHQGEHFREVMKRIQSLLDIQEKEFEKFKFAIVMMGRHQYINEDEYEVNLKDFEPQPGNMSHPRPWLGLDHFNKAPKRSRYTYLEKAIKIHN
UniProt P01106: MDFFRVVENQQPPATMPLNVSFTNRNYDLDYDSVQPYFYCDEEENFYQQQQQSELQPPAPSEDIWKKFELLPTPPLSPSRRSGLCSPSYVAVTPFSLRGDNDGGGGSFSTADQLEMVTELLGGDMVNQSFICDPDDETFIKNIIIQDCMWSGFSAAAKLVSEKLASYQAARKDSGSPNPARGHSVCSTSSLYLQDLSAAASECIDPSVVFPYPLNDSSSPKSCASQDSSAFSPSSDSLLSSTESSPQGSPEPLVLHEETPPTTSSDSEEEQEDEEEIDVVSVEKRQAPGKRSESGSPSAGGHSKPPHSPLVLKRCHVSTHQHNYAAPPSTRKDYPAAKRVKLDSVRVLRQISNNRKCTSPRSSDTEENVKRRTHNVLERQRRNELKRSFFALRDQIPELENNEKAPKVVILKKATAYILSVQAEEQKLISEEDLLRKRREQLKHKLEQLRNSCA
UniProt P35222: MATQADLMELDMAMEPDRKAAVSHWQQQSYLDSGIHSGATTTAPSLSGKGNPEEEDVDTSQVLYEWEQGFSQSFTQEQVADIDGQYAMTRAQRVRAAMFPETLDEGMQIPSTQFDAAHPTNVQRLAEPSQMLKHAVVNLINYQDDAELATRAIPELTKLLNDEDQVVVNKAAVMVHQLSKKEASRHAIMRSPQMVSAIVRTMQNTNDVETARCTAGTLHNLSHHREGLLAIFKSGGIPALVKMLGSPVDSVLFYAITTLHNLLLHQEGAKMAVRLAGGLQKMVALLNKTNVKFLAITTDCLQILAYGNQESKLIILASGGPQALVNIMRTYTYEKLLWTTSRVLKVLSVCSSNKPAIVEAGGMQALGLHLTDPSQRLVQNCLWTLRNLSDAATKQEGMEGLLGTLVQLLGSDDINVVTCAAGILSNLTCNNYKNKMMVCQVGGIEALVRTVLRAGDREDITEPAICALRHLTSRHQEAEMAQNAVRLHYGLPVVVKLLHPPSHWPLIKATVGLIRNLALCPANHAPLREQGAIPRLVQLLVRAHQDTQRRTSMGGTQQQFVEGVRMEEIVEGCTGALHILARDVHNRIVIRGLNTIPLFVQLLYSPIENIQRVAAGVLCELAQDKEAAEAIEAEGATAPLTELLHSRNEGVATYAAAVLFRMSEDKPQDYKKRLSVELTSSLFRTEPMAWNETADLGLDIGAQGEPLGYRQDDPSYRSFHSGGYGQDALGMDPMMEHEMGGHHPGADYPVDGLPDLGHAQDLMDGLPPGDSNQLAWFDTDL

Assays:
Test in all cases: co-IP; Pierce Co-Immunoprecipitation kit; 5 mg protein of HCC cell lysate with 10 µg antibody or IgG (negative control), 4 °C overnight; eluate read by Western blot
[1] = target: T1, ENKUR (Enkurin), overexpressed in HCC cells (UniProt Q8TC29)
T1 sequence: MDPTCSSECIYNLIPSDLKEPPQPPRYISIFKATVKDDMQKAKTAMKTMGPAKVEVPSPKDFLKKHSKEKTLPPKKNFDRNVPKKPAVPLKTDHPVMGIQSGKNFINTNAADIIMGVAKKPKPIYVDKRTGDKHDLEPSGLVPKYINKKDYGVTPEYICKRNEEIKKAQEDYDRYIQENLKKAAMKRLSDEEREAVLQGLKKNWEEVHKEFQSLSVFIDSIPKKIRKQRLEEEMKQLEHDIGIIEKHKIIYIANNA

Enkurin domain of ENKUR = target: T2, Enkurin domain of ENKUR (UniProt Q8TC29)
T2 sequence: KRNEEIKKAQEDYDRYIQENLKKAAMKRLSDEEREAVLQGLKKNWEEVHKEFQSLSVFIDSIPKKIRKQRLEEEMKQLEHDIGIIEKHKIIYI

[2] = target: MYH9 (myosin IIA heavy chain) (human (endogenous in LM3 and 7721)) (UniProt P35579)

Row | binding [1] | binding (Enkurin domain of ENKUR) | binding [2] | Substance
1 | binds | binds | – | MYH9 (myosin IIA heavy chain) (from UniProt P35579 1-1960)
2 | – | – | binds | USP7 (from UniProt Q93009 1-1102) (enzyme)
3 | – | – | binds | c-Myc (from UniProt P01106 1-454)
4 | binds | binds | – | β-catenin (from UniProt P35222 1-781)
